This passage reports binding results from PMC9958362.

These are yes or no findings as the source states them, for the method shown. Binding seen in cells or lysates may run through a third protein. A result given as binding can be weak or reduced; the word gives no strength.

Experiment [1] deals with T1, XPC (endogenous, HEK293T) (human (endogenous in HEK293T)) (UniProt Q01831).
T1 sequence: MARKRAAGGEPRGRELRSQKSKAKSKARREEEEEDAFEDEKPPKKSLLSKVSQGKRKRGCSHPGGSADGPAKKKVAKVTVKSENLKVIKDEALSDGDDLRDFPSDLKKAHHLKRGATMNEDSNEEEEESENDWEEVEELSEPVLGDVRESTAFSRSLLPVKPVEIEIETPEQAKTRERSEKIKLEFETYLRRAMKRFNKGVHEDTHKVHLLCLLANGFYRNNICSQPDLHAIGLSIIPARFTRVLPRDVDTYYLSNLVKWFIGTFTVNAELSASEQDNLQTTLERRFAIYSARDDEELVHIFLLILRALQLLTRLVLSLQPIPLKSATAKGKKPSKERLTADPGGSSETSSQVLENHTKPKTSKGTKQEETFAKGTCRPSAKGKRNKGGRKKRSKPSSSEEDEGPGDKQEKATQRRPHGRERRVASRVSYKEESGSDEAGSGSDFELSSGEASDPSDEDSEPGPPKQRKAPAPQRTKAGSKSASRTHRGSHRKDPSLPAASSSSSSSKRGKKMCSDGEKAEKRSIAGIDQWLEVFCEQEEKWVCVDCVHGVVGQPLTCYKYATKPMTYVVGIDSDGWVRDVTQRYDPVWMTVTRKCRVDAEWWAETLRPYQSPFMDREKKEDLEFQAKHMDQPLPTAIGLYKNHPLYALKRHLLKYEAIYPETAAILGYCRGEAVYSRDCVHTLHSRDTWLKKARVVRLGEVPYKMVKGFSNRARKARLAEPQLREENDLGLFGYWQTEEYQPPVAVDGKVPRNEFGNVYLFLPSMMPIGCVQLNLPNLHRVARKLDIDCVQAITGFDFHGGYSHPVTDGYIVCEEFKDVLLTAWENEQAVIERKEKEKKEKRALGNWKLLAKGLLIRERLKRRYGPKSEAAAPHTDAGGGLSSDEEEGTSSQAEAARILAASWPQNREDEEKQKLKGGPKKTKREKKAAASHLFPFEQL
The experiment in a line: co-IP; HEK293T whole cell extract overexpressing GFP-MAP7 constructs or mCherry-MAP7D1 constructs, with the endogenous DDR protein; 2 h, 4 °C, 150 mM NaCl, 1% Triton X-100; in some panels cells treated with nocodazole (0.1 ng/mL), paclitaxel (0-10 μM), 10 Gy γ-irradiation or 10 J/m^2 UVC; western blot. A general note: A western blot detects proteins with antibodies after separation by electrophoresis.

Experiment [2] has as its target T2, pRAD50 peptide (phosphorylated RAD50 peptide, pThr690).
T2 sequence (peptide, Biotin-eahx on the N-terminus; phosphothreonine (pT, Thr690); C-terminal amide): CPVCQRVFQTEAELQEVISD
The experiment in a line: pull-down; biotinylated RAD50 peptides (nonP and P); pull-down from HEK293T whole cell extract overexpressing GFP-MAP7; western blot; only the target purified.

Consider “GFP-tagged MAP7 N-terminal fragment (aa1-152) (domain or fragment)”, for which the binding entry in experiment [1] is on record as “binds”.

As for “GFP-tagged MAP7 aa1-290 (domain or fragment)”, in experiment [1], the binding entry is reported as “binds”.

Regarding “GFP-tagged MAP7 aa290-730 (domain or fragment)”, in experiment [1], the binding entry is given as “no binding”.

With GFP-tagged full-length MAP7, the binding entry in experiment [2] and in experiment [1] was “binds” each time.
